Reference: US20250057965A1, “PEPTIDE OLIGONUCLEOTIDE CONJUGATES” (Sarepta Therapeutics, Inc., priority 2015, published 2025)
At least one structure is not confirmed: it was looked up by name or label, or the drawing left a doubt.

System: dystrophin exon 23
Assay: Dose response for efficacy in mdx mice: % exon 23 skipping by nested RT-PCR
Assay type: in vivo, Mouse (mdx)
Conditions: for % Exon 23 Skip (Average), Diaphragm / % Exon 23 Skip (Average), Heart / % Exon 23 Skip (Average), Quadricep (L): mdx mice, 7 days post-dose, n=5
From the text: The aim of this study was to compare efficacy of peptide-oligomer-conjugates of the disclosure in a dose response study in mice. The spacing between the peptide and PMO modulates efficacy. Accordingly, PEG lengths of 3, 4, and 8 were used to systematically increase spacing between Ac-R6-Gly (SEQ ID NO:1) and the PMO. Additionally, an all-D amino acid version of Ac-R6-Gly (SEQ ID NO:1) and Ac-R6-Apa (SEQ ID NO:4) (4-amino phenyl acetic acid; aromatic, hydrophobic linker) were used (Table 2).
Selected peptide-oligomer-conjugates that were tested are listed in Table 2 (the peptide-oligomer-conjugates were formulated in saline and stored at 5° C.).
Animals were randomized into treatment groups based on cage weights as specified in Table 4.
The day of dosing on the study was designated as Study Day 1. Each peptide-oligomer-conjugate was vortexted for approximately 10 seconds prior to dosing, and administered via tail vein as a slow push bolus (˜5 seconds; 200 μL). Dosing was performed over two days. All animals receiving the same peptide-oligomer-conjugate were dosed on the same day. […] Any remaining spare animals were necropsied and tissues collected as specified below.
On day 8 (7 days post-dose), all animals, including any untreated or spare animals, were humanely euthanized with carbon dioxide. Euthanasia was performed in accordance with accepted American Veterinary Medical Association (AVMA) guidelines on Euthanasia, June 2007.
Tissues were collected within 15 minutes or less of euthanasia. All instruments and tools used were changed between treatment groups. All tissues were flash frozen and stored at a temperature lower than −70° C. as soon as possible after collection. The following tissues were collected: liver, kidneys, heart, quads, and diaphragm.
RNA from mouse quadriceps, heart, and diaphragm tissue was purified using GE Illustra RNAspin 96 well extraction kits. Briefly, 400 μL of lysis buffer (RA1+1% 2-mercaptoethanol was added to about 20-30 mg of frozen tissue in a plate with zirconia beads (Biospec) and homogenized using GenoGrinder (Spex Sample Prep) at 4×8 minutes at 1750 RPM; cooling between each run. The homogenate was immediately processed for RNA purification according to the GE RNAspin Illustra 96 well protocol. Total RNA was quantitated with a Nanodrop 2000 spectrophotometer (ThermoScientific).
RNA was analyzed by a classic nested PCR reaction. RT-PCR reagents were from Invitrogen unless otherwise specified. PCR reactions were run in a CFX96 or S1000 thermocycler (BioRad). Final cDNA products were separated on a NuPage 10% TBE gel (Invitrogen) run at 200V, 1 hr at room temperature. Gels were scanned with a Typhoon Trio (GE Healthcare) using a 670 BP 30 Cy5 emission filter and analyzed with ImageQuant software.
Primers used for PCR analysis were as follows: dystrophin outer forward (5′-[…]-3′; SEQ ID NO:9), dystrophin outer reverse (5′-[…]-3′; SEQ ID NO:10), dystrophin inner forward (5′-[…]-3′; SEQ ID NO:11), and dystrophin inner reverse (5′-[…]-3′; SEQ ID NO:12).

Structure (SMILES): CC(=O)N[C@@H](CCCNC(=N)N)C(=O)N[C@@H](CCCNC(=N)N)C(=O)N[C@@H](CCCNC(=N)N)C(=O)N[C@@H](CCCNC(=N)N)C(=O)N[C@@H](CCCNC(=N)N)C(=O)N[C@@H](CCCNC(=N)N)C(=O)NCC(=O)N1CCN(C(=O)OCCOCCOCCOC(=O)N2C[C@@H](COP(=O)(N(C)C)N3C[C@@H](COP(=O)(N(C)C)N4C[C@@H](COP(=O)(N(C)C)N5C[C@@H](COP(=O)(N(C)C)N6C[C@@H](COP(=O)(N(C)C)N7C[C@@H](COP(=O)(N(C)C)N8C[C@@H](COP(=O)(N(C)C)N9C[C@@H](COP(=O)(N(C)C)N%10C[C@@H](COP(=O)(N(C)C)N%11C[C@@H](COP(=O)(N(C)C)N%12C[C@@H](COP(=O)(N(C)C)N%13C[C@@H](COP(=O)(N(C)C)N%14C[C@@H](COP(=O)(N(C)C)N%15C[C@@H](COP(=O)(N(C)C)N%16C[C@@H](COP(=O)(N(C)C)N%17C[C@@H](COP(=O)(N(C)C)N%18C[C@@H](COP(=O)(N(C)C)N%19C[C@@H](COP(=O)(N(C)C)N%20C[C@@H](COP(=O)(N(C)C)N%21CCN(C(=O)OCCOCCOCCO)CC%21)O[C@@H](n%21cnc%22c(=O)[nH]c(N)nc%22%21)C%20)O[C@@H](n%20ccc(N)nc%20=O)C%19)O[C@@H](n%19cc(C)c(=O)[nH]c%19=O)C%18)O[C@@H](n%18cnc%19c(N)ncnc%19%18)C%17)O[C@@H](n%17cc(C)c(=O)[nH]c%17=O)C%16)O[C@@H](n%16cc(C)c(=O)[nH]c%16=O)C%15)O[C@@H](n%15cnc%16c(N)ncnc%16%15)C%14)O[C@@H](n%14ccc(N)nc%14=O)C%13)O[C@@H](n%13ccc(N)nc%13=O)C%12)O[C@@H](n%12cc(C)c(=O)[nH]c%12=O)C%11)O[C@@H](n%11cc(C)c(=O)[nH]c%11=O)C%10)O[C@@H](n%10cnc%11c(N)ncnc%11%10)C9)O[C@@H](n9cnc%10c(N)ncnc%109)C8)O[C@@H](n8ccc(N)nc8=O)C7)O[C@@H](n7ccc(N)nc7=O)C6)O[C@@H](n6ccc(N)nc6=O)C5)O[C@@H](n5cnc6c(N)ncnc65)C4)O[C@@H](n4cnc5c(=O)[nH]c(N)nc54)C3)O[C@@H](n3cc(C)c(=O)[nH]c3=O)C2)CC1 (stereo partly shown) [PPMO-4]
- Efficacy compared with PPMO-2 (all tissue types assayed): greater efficacy than PPMO-2 in all tissue types assayed
- ED40 relative to PPMO-8 (fold difference): approximately three-fold greater
- Potency compared with PPMO-8 (in words): improved potency over PPMO-8
- % Exon 23 Skip (Average), Diaphragm (5 mg/kg single i.v. injection): 0%
- % Exon 23 Skip (Average), Heart (5 mg/kg single i.v. injection): 0%
- % Exon 23 Skip (Average), Quadricep (L) (5 mg/kg single i.v. injection): 7%
- % Exon 23 Skip (Average), Diaphragm (10 mg/kg single i.v. injection): 13%
- % Exon 23 Skip (Average), Heart (10 mg/kg single i.v. injection): 5%
- % Exon 23 Skip (Average), Quadricep (L) (10 mg/kg single i.v. injection): 24%
- % Exon 23 Skip (Average), Diaphragm (20 mg/kg single i.v. injection): 67%
- % Exon 23 Skip (Average), Heart (20 mg/kg single i.v. injection): 25%
- % Exon 23 Skip (Average), Quadricep (L) (20 mg/kg single i.v. injection): 76%
- % Exon 23 Skip (Average), Diaphragm (40 mg/kg single i.v. injection): 90%
- % Exon 23 Skip (Average), Heart (40 mg/kg single i.v. injection): 89%
- % Exon 23 Skip (Average), Quadricep (L) (40 mg/kg single i.v. injection): 89%
- % Exon 23 Skip (Average), Diaphragm (80 mg/kg single i.v. injection): 93%
- % Exon 23 Skip (Average), Heart (80 mg/kg single i.v. injection): 95%
- % Exon 23 Skip (Average), Quadricep (L) (80 mg/kg single i.v. injection): 93%
- Effective dose relative to PPMO-8 (quadriceps samples): half that of PPMO-8
